Intracellular bacterial bioluminescence data for 92 molecules are collected here from the supplement of paper PMC12578635.

This is one part of the list. No stated cut-off is given here; in the data, active = 150% or more and inactive = the rest. Most values come without repeats; read them as rough.

In this assay the test system is Staphylococcus aureus JE2-lux inside RAW 264.7 macrophages. Description: intracellular bacterial bioluminescence relative to DMSO vehicle; higher = higher intracellular bacterial metabolic activity. As to conditions: 10 µM; treatment time 4 h; gentamicin 50 µg/ml.
`CC(=O)Nc1ccc(NC(=O)c2ncoc2-c2ccc(F)cc2)cc1C`: the intracellular bacterial bioluminescence is inactive: 119%.
In the case of `COC(CNC(=O)c1c(O)nc2ccccn2c1=O)OC`, the intracellular bacterial bioluminescence is inactive: 123%.
For `Cc1nc(Nc2ccccc2)c([N+](=O)[O-])c(Nc2ccccc2)n1` the value was inactive: 117%; for `O=C(c1cnc2ccccc2c1S(=O)(=O)c1cccc(F)c1)N1CCSCC1`, inactive: 93.2%.
For `O=C(CSc1nc(C2CC2)nc2ccccc12)Nc1ccc2c(c1)OCO2` the value was inactive: 90.5%; for `NC(=O)c1c(NC(=O)/C=C/c2cccs2)sc2c1CCCCC2`, inactive: 87%.
To `COCCCNC(=O)c1cc(-c2ccc(C)cc2)nc2n[nH]c(-c3ccc(F)cc3)c12` belongs inactive: 134%.
Take `Cc1nc2nc(Cc3cccc(F)c3)nn2c(N2CCN(Cc3ccc4c(c3)OCO4)CC2)c1C`: the intracellular bacterial bioluminescence is inactive: 131%.
To `Cc1cccc(C2(O)CCN(C(=O)c3sc4ncn(C)c(=O)c4c3C)CC2)c1` belongs inactive: 103%; to `COc1ccc(CC(=O)Nc2cc(NC(=O)c3cccs3)ccc2C)cc1OC`, inactive: 80.2%; to `Cc1cc2nc(C3CCN(CC(=O)Nc4ccccc4C(F)(F)F)CC3)[nH]c2cc1C`, active: 213%.
For `CCOC(=O)c1[nH]c2ccc(OC)cc2c1NC(=S)N1CCN(C(=O)OCC)CC1` the value was inactive: 65.3%.
To `CCC(C)Sc1nc2c(c(=O)[nH]1)C(c1cccnc1)C1=C(CC(C)(C)CC1=O)N2` (configuration not stated) belongs inactive: 106%; to `COc1cc(NC(=O)c2cnc(C)cn2)ccc1NC(=O)C1CCCCC1`, inactive: 105%; to `CC1CCN(C(=O)c2cnc3ccc(Cl)cc3c2O)CC1`, inactive: 92.3%.
Take `Cn1c2ccccc2c2nnc(SCC(=O)Nc3ccc4c(c3)CCC4)nc21`: the intracellular bacterial bioluminescence was inactive: 6.08%.
For `CCCn1cc(C(=O)Nc2ccc3c(c2)OCCO3)c2nn(-c3ccccc3)c(=O)c-2c1` the value was inactive: 84.8%; for `O=C(COc1ccccc1C1CC(c2ccccc2)=NN1C(=O)c1ccccc1)NCCO` (configuration not stated), inactive: 121%.
To `O=c1[nH]c(SC/C=C/c2ccccc2)nc2sc3c(c12)CCC3` belongs inactive: 85.4%.
Regarding `Cn1c(=O)n(CC(N)=O)c(=O)c2c1nc1n2CCCN1c1ccc(Br)cc1`, the intracellular bacterial bioluminescence was inactive: 96.7%.
To `COc1ccccc1NC(=O)c1cnn2c(=O)cc(C(C)C)[nH]c12` belongs inactive: 89.4%; to `COc1ccc(OC)c2sc(N(CCCn3ccnc3)C(=O)c3ccco3)nc12`, inactive: 75.7%.
To `COc1ccc(C2=N/C(=C/c3cccnc3)C(=O)O2)cc1OC` belongs inactive: 93.3%.
To `O=C(/C=C/c1cccs1)Nc1nc2c(cc3c4c(cccc42)CC3)s1` belongs inactive: 109%; to `COc1ccc(NC2CC(=O)N(c3cc([N+](=O)[O-])ccc3C)C2=O)cc1` (configuration not stated), inactive: 91.2%; to `O=C(CSC1=NS(=O)(=O)c2ccccc2N1)NCC1CCCO1` (configuration not stated), inactive: 112%.
Consider `O=C(CSc1ncc(S(=O)(=O)c2ccc(Cl)cc2)c(=O)[nH]1)Nc1ccccc1F`, for which the intracellular bacterial bioluminescence was inactive: 111%.
To `CC1CCN(S(=O)(=O)c2ccc(C(=O)Nc3cc(C(F)(F)F)ccc3Cl)cc2)CC1` belongs inactive: 118%; to `COCCCNC(=O)Cn1c(-c2cccs2)cc2cccnc21`, inactive: 102%; to `CCc1cccc(NC(=O)c2cc3n(n2)CCCN(Cc2ccccc2)C3=O)c1`, inactive: 59.5%.
For `CCOC(=O)C1=C(C)NC(O)=NC1c1cc(Br)c(O)c(OC)c1` (configuration not stated) the value was inactive: 79.3%; for `Cc1ccc(-c2nc3c(c(SCC(N)=O)n2)Cc2cc(C)ccc2O3)cc1`, inactive: 90.9%; for `Cc1cc2nc(NC(=O)c3ccc(S(=O)(=O)N4CCCC(C)C4)cc3)sc2cc1C` (configuration not stated), inactive: 100%.
For `O=C(Nc1cccc(F)c1)c1cnc2n(c1=O)CCS2` the value was inactive: 96.5%; for `COC(=O)C1=C(N)Oc2cc(C)[nH]c(=O)c2C1c1cccc(OC)c1` (configuration not stated), inactive: 125%; for `CCOC(=O)c1ccsc1NC(=O)c1coc2ccccc2c1=O`, inactive: 118%.
With `O=C1CCc2cc(S(=O)(=O)NCc3ccco3)cc3c2N1CC3`, the intracellular bacterial bioluminescence is inactive: 126%.
Turning to `CCOC(=O)c1cccc(NC(=O)C2CCN(c3nccc4c(C)nn(CC)c34)CC2)c1`, the intracellular bacterial bioluminescence is inactive: 25.5%.
To `CCc1ccc(NC(=O)c2sc3nc4c(c(-c5ccco5)c3c2N)CCCC4)cc1` belongs inactive: 79.7%; to `N#Cc1ccc(-c2ccco2)nc1SCC(=O)NCc1ccc2c(c1)OCO2`, inactive: 108%; to `CCc1ccccc1NS(=O)(=O)c1cc(-c2ccn[nH]2)cs1`, inactive: 94.4%.
To `Cn1ncc2c1CCc1sc(NC(=O)CC3SC(=O)NC3=O)nc1-2` (configuration not stated) belongs inactive: 94.8%; to `O=C1c2oc3ccccc3c(=O)c2C(c2ccccc2)N1Cc1cccnc1` (configuration not stated), inactive: 101%; to `CN1C(=O)N(CC(=O)NC2CCCC2)c2cccnc2N1C`, inactive: 108%.
For `CC1Cc2ccccc2N1Cc1nnc(-c2ccccc2)o1` (configuration not stated) the value was inactive: 87%.
On to `COc1nn(C)cc1C(=O)Nc1ccc(C)c(C)c1`, for which the intracellular bacterial bioluminescence is inactive: 89.2%.
In the case of `CC1CCCN(c2cc(C(=O)O)c3cc(NC(=O)c4ccc(Br)cc4)ccc3n2)C1` (configuration not stated), the intracellular bacterial bioluminescence was inactive: 98.7%.
For `Cc1cccc(C)c1OCCn1c(CO)nc2ccccc21`, the intracellular bacterial bioluminescence is inactive: 91.5%.
To `COc1ccc(-n2ccnc(SCC(=O)NCc3ccccc3)c2=O)cc1OC` belongs inactive: 70.6%.
`CC(=O)c1ccc(NC(=O)CSc2ncc(C(=O)Nc3ccc(C)c(C)c3)c(=O)n2C)cc1`: the intracellular bacterial bioluminescence is inactive: 98.3%.
To `CCCc1cc(=O)[nH]c2nnc(SCC(=O)NC3CCCC3)n12` belongs active: 150%; to `CCOc1ccc(C(=O)Nc2c(N)nc(SCC(=O)N(CC)CC)[nH]c2=O)cc1`, inactive: 90.9%; to `CCOc1ccccc1NC(=O)CSc1nc2cc3c(cc2cc1C#N)OCO3`, inactive: 112%.
`Cc1ccc(S(=O)(=O)Nc2ccccc2C(=O)Nc2sc3c(c2C#N)CCC3)cc1`: the intracellular bacterial bioluminescence is inactive: 93.9%.
For `Cc1ccc(-n2nnc(C(=O)N3CCSCC3)c2-c2ccncc2)cc1C` the value was inactive: 104%; for `CC1CN(C)CCC1CCc1ccc(NC(=O)c2n[nH]c3c2CCC3)cc1` (configuration not stated), inactive: 148%.
In the case of `Cc1ccc(-c2noc(-c3cccnc3N(C)Cc3ccccc3)n2)cc1`, the intracellular bacterial bioluminescence was inactive: 83.5%.
With `COc1ccc(N2CCN(c3ncnc4c3c(C)c(C)n4-c3ccccc3)CC2)cc1`, the intracellular bacterial bioluminescence was inactive: 124%.
`Nc1c(C(=O)NCc2cccs2)c2nc3ccccc3nc2n1-c1ccc(F)cc1`: the intracellular bacterial bioluminescence was inactive: 45%.
To `Clc1ccc(Cl)c2sc(N3CCCC3)nc12` belongs inactive: 85.1%; to `C=CCn1c(CSc2nc(N)cc(N)n2)n[nH]c1=S`, inactive: 126%; to `CCOc1cccc2sc(Nc3nc4c(F)cccc4s3)nc12`, inactive: 111%.
`Cc1ccnc(SCc2cc(=O)c(OC(=O)c3ccc(S(=O)(=O)N4CCCC4)cc3)co2)n1`: the intracellular bacterial bioluminescence is inactive: 124%.
For `CCOc1cc2c(cc1OCC)C(C)N(C(=O)c1ccc3nc(C)[nH]c3c1)CC2` (configuration not stated) the value was inactive: 116%; for `CCCCN(Cc1ccccc1)c1ncnc2[nH]cnc12`, inactive: 75.1%; for `Cc1cc2ccccc2n2c(=O)n(CC(C)NC(=O)c3ccnn3C)nc12` (configuration not stated), inactive: 104%.
As to `CCOC(=O)CC(NC(=O)Nc1c(-c2ccncc2)[nH]c2ccc(F)cc12)c1ccccc1` (configuration not stated), the intracellular bacterial bioluminescence was inactive: 96.2%.
To `O=C(COc1cccc2ccc(N3CCN(c4ccccc4)CC3)nc12)Nc1cccc(F)c1` belongs inactive: 85.1%; to `CCCCOc1ccccc1C1CC(=O)Nc2c1c(C)nn2-c1nc2ccccc2s1` (configuration not stated), inactive: 109%; to `COc1cccc(NC(=O)c2cc3c(=O)n4ccccc4nc3n(CC(C)C)c2=N)c1`, inactive: 129%.
For `COc1ccccc1OCC(=O)Nc1noc(-c2cccc(C)c2)n1`, the intracellular bacterial bioluminescence was inactive: 84.9%.
For `O=C(Nc1nnc(-c2ccncc2)o1)c1ccccc1I` the value was inactive: 93.2%; for `COc1ccccc1Cn1cc(C(=O)c2ccccc2)c(=O)c2cc3c(cc21)OCO3`, inactive: 3.97%.
Regarding `O=C(COc1ccc(Br)cc1)N/N=C/c1ccco1`, the intracellular bacterial bioluminescence was inactive: 107%.
Consider `CCOc1ccc2cc(C#N)c(SCC(=O)Nc3c[nH]c(=O)[nH]c3=O)nc2c1`, for which the intracellular bacterial bioluminescence was inactive: 92.4%.
For `COc1ccc(C(=O)N(Cc2cccnc2)c2nc3c(C)cc(Cl)cc3s2)cc1OC` the value was inactive: 56.8%.
For `O=c1[nH]cc(S(=O)(=O)N2CCCc3ccccc32)c(=O)[nH]1` the value was inactive: 106%; for `CCn1c(C)cc2cc(NC(=O)COc3ncnc4ccccc34)ccc21`, inactive: 8.07%; for `COc1cccc2s/c(=N/C(=S)NC(=O)c3ccc(C)cc3)n(C)c12`, inactive: 97.2%.
`O=C(NCc1cccs1)c1ccc(S(=O)(=O)c2ccccc2)nc1`: the intracellular bacterial bioluminescence is inactive: 97.5%.
Take `COc1ccc2cc(CCNC(=O)c3ccc(OC)c(OC)c3)c(=O)[nH]c2c1`: the intracellular bacterial bioluminescence is inactive: 93.2%.
For `CCOC(=O)c1c(NC(=O)CSc2nc(N)cc(=O)[nH]2)sc2c1CCC2` the value was inactive: 82.4%.
To `CN(c1ccccc1)N1C(=O)/C(=C2/C(=O)Nc3ccc(Br)cc32)SC1=S` belongs inactive: 72.7%; to `N#CC1=C(N)OC2=C(C(=O)CCC2)C1c1ccc(-c2ccc(Br)cc2)o1` (configuration not stated), inactive: 89.2%.
For `Cc1sc2nc(C)n3c(=O)n(Cn4nnc5ccccc54)nc3c2c1C`, the intracellular bacterial bioluminescence is inactive: 97.9%.
Regarding `O=C(NNc1nc2c(F)cc(F)cc2s1)c1ccc(F)cc1`, the intracellular bacterial bioluminescence is inactive: 25.5%.
To `CCC(Sc1nncn1C)C(=O)Nc1nnc(-c2ccc(OC)cc2OC)s1` (configuration not stated) belongs inactive: 49.8%.
Take `O=C(NC1CCN(Cc2cccc(F)c2)CC1)c1cnn(-c2ccc(F)cc2)c1`: the intracellular bacterial bioluminescence is inactive: 146%.
For `Cc1nc(SCC(=O)NCc2ccco2)c2c3c(sc2n1)CCCC3` the value was inactive: 82.2%.
For `CC(c1ccccc1)n1cnc2c(cnc3nc4ccccc4n32)c1=O` (configuration not stated) the value was inactive: 100%; for `CCCCc1ccc(-n2c(C)c(C)n3c4c(=O)[nH]c(=O)n(C)c4nc23)cc1`, inactive: 114%.
With `Cc1nc2c(C)cccn2c(=O)c1NC(=O)COc1ccc2ccccc2c1`, the intracellular bacterial bioluminescence is inactive: 95%.
